Assay results: patent US20100279930A1, “HUMAN PANCREATIC POLYPEPTIDE (HPP) ANALOGUES AND THEIR EFFECTS ON FEEDING BEHAVIOUR” (priority 2007, published 2010)
No constants are given. Whether binding was seen depends on the method and setting. Some results given as binding are weak or reduced against the parent protein; the word gives no strength.

Protein sequences, listed by entry. Tags and fused reporters are not part of them.
UniProt P50391: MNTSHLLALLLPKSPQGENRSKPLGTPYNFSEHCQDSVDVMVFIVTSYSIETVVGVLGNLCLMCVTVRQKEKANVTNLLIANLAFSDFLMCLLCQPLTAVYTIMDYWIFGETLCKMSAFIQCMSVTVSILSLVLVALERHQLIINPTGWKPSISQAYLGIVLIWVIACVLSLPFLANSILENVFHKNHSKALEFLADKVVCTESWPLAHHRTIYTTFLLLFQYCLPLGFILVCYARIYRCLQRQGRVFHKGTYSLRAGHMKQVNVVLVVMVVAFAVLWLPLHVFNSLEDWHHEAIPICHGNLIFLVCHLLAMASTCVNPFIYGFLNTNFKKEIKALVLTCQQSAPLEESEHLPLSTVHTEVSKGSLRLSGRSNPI

Target: human Y4 receptor (human) (UniProt P50391)
Assay: 125I-PP displacement assay, human Y4 receptor membranes

Binder | binding
KPLEPVYPGDNATPEELNRYYASLRRYINMLTRPRY [compound of SEQ ID NO:72 (code 6674)] | binds
KPLEPVYPGDNATPEQMAQYAADLRRYINMLTRPRY (lauryl-lysine at position 1 (replaces Ala 1)) [compound of SEQ ID NO:11 (code 6435)] | binds

Further lines, results first:

binding | Binder
binds | GAPLEPHFPGDNATPEEMAKYAAELRRYINKLTRPRY [compound of SEQ ID NO:1092]
binds | KPLEPVYPGDNATPEELNRYYASLRRYINMLTRPRY [compound of SEQ ID NO:73 (code 6675)]
